The results in this text go back to the supplement of paper PMC10398353.

Values joined by “and” are separate entries in the source; they are usually repeats but may differ in a detail not shown here. Equal entries are not always repeated. Structures can show the parent of a compound that is named as a salt. ± gives the standard deviation of the averaged measurements. The list shows a part of the results. The data scatter; read single values as rough.

The assay concerns Salmonella enterica serovar Typhimurium ST313 D23580. Kind of assay: normalized bacterial growth (OD600 20 h minus 0 h, interquartile-mean normalized) (fraction of plate interquartile mean); higher = more bacterial growth (less inhibition). Particulars: LPM (pH 5.8, low phosphate, low Mg2+), concentration: 10 µM, temperature: 37 °C.
In the case of `NC(=O)c1cc(N2CC2)c([N+](=O)[O-])cc1[N+](=O)[O-]`, the normalized bacterial growth turned out to be 1.12.
To `CP(=O)(O)C1=CCNCC1` belongs 1.14; to `C[C@@H]1O[C@H](C[N+](C)(C)C)C[C@H]1O` [()-Muscarine chloride], 0.951.
The figure for `C[N+]1([O-])[C@@H]2CC(OC(=O)[C@H](CO)c3ccccc3)C[C@H]1[C@@H]1O[C@@H]12` (stereo partly drawn) is 1.05.
`NC(CCCCCP(=O)(O)O)C(=O)O` (stereo not drawn) [()-2-Amino-7-phosphonoheptanoic acid] yielded a normalized bacterial growth of 1.01.
The figure for `COC(=O)[C@@H](N)CCCNC(=N)N[N+](=O)[O-]` [NG-Nitro-L-arginine methyl ester hydrochloride] is 0.916; for `CN1CCc2cccc(Cl)c2CC1` it is 0.982.
The figure for `COc1c2c(cc3c1OCO3)CCN(C)C2` is 0.849 and 0.957; for `C[C@]12CCC(=O)C[C@@H]1CC[C@@H]1[C@@H]2CC[C@]2(C)C(=O)CC[C@@H]12` ["5alpha-ANDROSTAN-3,17-DIONE"] it is 1.03; for `C[C@]12CC[C@H](O)C[C@H]1CC[C@@H]1[C@@H]2CC[C@]2(C)[C@@H](C3=CC(=O)OC3)[C@@H](O)C[C@]12O` it is 0.829 ± 0.11.
`CC(=O)O[C@H]1C[C@@H]2CC[C@@H]3[C@H](CC[C@@]4(C)[C@H]3C[C@H]([N+]3(C)CCCCC3)[C@@H]4OC(C)=O)[C@@]2(C)C[C@@H]1[N+]1(C)CCCCC1` gave a normalized bacterial growth of 1.03.
To `CC(=O)O[C@H]1C[C@@H]2CC[C@@H]3[C@H](CC[C@@]4(C)[C@H]3C[C@H]([N+]3(C)CCCCC3)[C@@H]4OC(C)=O)[C@@]2(C)C[C@@H]1[N+]1(C)CCCCC1` [Pancuronium bromide] belongs 0.869.
To `CO[C@H]1[C@@H](O)[C@@H](C)O[C@H](O[C@H]2[C@H](Oc3cccc4c(O)c5c(=O)oc6ccc(C)c7c(=O)oc(c34)c5c67)O[C@H](C)[C@H](O)[C@@H]2O)[C@@H]1O` belongs 0.922; to `CNC(=O)CSP(=S)(OC)OC`, 1.15; to `CCSCC[C@H](N)C(=O)O`, 1.04.
The figure for `CCNc1nc(Cl)nc(NC(C)C)n1` is 1; for `O=c1c2ccccc2[se]n1-c1ccccc1` [Ebselen] it is 0.148.
Regarding `CCCN(CCC)C1Cc2cc(OC)c(OC)cc2C1`, the normalized bacterial growth was 1.18.
To `Cc1ccc(/N=C/N(C)/C=N/c2ccc(C)cc2C)c(C)c1` belongs 1.39; to `N=C(NCCC[C@H](N)C(=O)O)N[N+](=O)[O-]` [NG-Nitro-L-arginine], 0.819; to `C[C@]12CC[C@H]3[C@@H](CCC4=CC(=O)CC[C@@]43C)[C@@H]1CC[C@@H]2O`, 1.07.
For the compound `COc1cc2c3cc1Oc1c(OC)c(OC)cc4c1[C@@H](Cc1cccc(c1)Oc1ccc(c(O)c1)C[C@@H]3N(C)CC2)N(C)CC4`, the normalized bacterial growth is 0.916.
To `O=c1ccc2cc(O[C@@H]3O[C@H](CO)[C@@H](O)[C@H](O)[C@H]3O)c(O)cc2o1` belongs 0.669 and 0.618.
Consider `O=c1ccc2cc(O[C@@H]3O[C@H](CO)[C@@H](O)[C@H](O)[C@H]3O)c(O)cc2o1` [Esculin Hydrate], for which the normalized bacterial growth came to 1.17.
`CC(C)NC(C)Cc1ccc(I)cc1` (stereo not drawn) [Iofetamine hydrochloride]: the normalized bacterial growth was 0.992.
The figure for `COC(=O)N1CCN(C(=O)Cc2ccc(Cl)c(Cl)c2)C(CN2CCCC2)C1` (stereo not drawn) is 1.03; for `NCC(O)c1ccc(O)cc1` (stereo not drawn) [()-Octopamine hydrochloride] it is 0.914.
The figure for `CC[C@H]1CN2CCc3c([nH]c4ccccc34)[C@H]2C[C@@H]1/C(=C\OC)C(=O)OC` is 0.865.
To `NCC#Cc1ccccc1` [3-Phenylpropargylamine hydrochloride] belongs 1.1.
`CC(NC(C)(C)C)C(=O)c1cccc(Cl)c1` (stereo not drawn) [Bupropion hydrochloride] came in with a normalized bacterial growth of 1.21.
Compound `N[C@]1(C(=O)O)CC[C@H](C(=O)O)C1` [trans-()-ACPD] registered a normalized bacterial growth of 1.28.
The figure for `Oc1ccc2c3c1O[C@H]1c4[nH]c5ccccc5c4C[C@@]4(O)[C@@H](C2)N(CC2CC2)CC[C@]314` [Naltrindole hydrochloride] is 0.919; for `CCN1C[C@]2(C)CC[C@H](O)[C@]34C1[C@@H](C[C@H]23)[C@@]1(O)C[C@H](OC)[C@H]2C[C@@H]4[C@@H]1[C@H]2O` it is 1.11.
To `CCN1C[C@]2(C)CC[C@H](O)[C@]34C1[C@@H](C[C@H]23)[C@@]1(O)C[C@H](OC)[C@H]2C[C@@H]4[C@@H]1[C@H]2O` [Karakoline] belongs 0.977; to `CC(=O)[C@H]1CC[C@H]2[C@@H]3CC[C@H]4C[C@H](O)CC[C@]4(C)[C@H]3CC[C@]12C`, 1.1; to `CC(=O)[C@H]1CC[C@H]2[C@@H]3CC[C@H]4C[C@H](O)CC[C@]4(C)[C@H]3CC[C@]12C` [5alpha-Pregnan-3alpha-ol-20-one], 0.787.
Take `C=CCSSCC=C`: the normalized bacterial growth came to 0.743.
The figure for `CN1CC[C@@]2(C)c3cc(O)ccc3N(C)C12` (single isomer, unassigned; (-)) [(-)-Eseroline fumarate] is 1.12; for `NCC(CC(=O)O)c1ccc(Cl)cc1` (stereo not drawn) [()-Baclofen] it is 1.04.
In turn, `CC(=O)O[C@H]1[C@H]2[C@@H](OC(=O)Cc3ccccc3)[C@@H](C)C[C@]2(OC(C)=O)C(=O)/C(C)=C/[C@@H]2[C@H](CC[C@@]13CO3)C2(C)C` displayed a normalized bacterial growth of 0.664 ± 0.039.
To `COc1ccc2c(c1O)-c1c(OC)c(OC)cc3c1[C@H](C2)N(C)CC3` belongs 0.918; to `NC(=O)c1cc([N+](=O)[O-])cc([N+](=O)[O-])c1`, 1.09.
For `O=C1CC[C@@]2(O)[C@H]3Cc4ccc(O)c5c4[C@@]2(CCN3CC2CC2)[C@H]1O5` [Naltrexone hydrochloride dihydrate], the normalized bacterial growth was determined as 1.24.
For the compound `O=C1CC[C@@]2(O)[C@H]3Cc4ccc(O)c5c4[C@@]2(CCN3CC2CC2)[C@H]1O5` [Naltrexone hydrochloride], the normalized bacterial growth turned out to be 1.09.
Compound `O=C1CC[C@@]2(O)[C@H]3Cc4ccc(O)c5c4[C@@]2(CCN3CC2CC2)[C@H]1O5` yielded a normalized bacterial growth of 0.79.
The figure for `CC1=C2C(=O)[C@H]3[C@@H](CC=C4C[C@@H](O)CC[C@@]43C)[C@@H]2CC[C@]12O[C@@H]1C[C@H](C)CN[C@H]1[C@H]2C` is 1.06; for `C[C@@H]1Cc2c(Cl)cc(C(=O)N[C@@H](Cc3ccccc3)C(=O)O)c(O)c2C(=O)O1` it is 1.13; for `NC(CP(=O)(O)O)C(=O)O` (stereo not drawn) [()-2-Amino-3-phosphonopropionic acid] it is 1.01.
